Measured values: publication PMC4942636
These are yes or no findings as the source states them, for the method shown. In cells and extracts the contact can be indirect. A yes stands for co-enrichment or nearness to the bait. Other partners may have been found. For some assays here: A no says only that the protein was not detected with the bait. For some assays here: Tags and fused reporters may be left off the sequences shown.

T1: Myc-BirA*-Txnip C247S (human) (UniProt Q9H3M7)
T1 sequence: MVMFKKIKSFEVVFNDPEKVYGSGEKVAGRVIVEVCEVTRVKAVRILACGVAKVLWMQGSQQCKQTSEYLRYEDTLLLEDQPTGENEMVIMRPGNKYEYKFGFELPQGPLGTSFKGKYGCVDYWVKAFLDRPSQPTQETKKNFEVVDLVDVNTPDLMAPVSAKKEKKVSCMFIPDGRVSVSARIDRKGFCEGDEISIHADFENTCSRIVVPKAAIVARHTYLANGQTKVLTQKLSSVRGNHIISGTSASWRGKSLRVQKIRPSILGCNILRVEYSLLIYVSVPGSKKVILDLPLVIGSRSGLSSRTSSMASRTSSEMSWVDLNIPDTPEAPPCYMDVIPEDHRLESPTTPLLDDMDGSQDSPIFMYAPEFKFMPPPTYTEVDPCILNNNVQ

B1: Heat shock 70 kDa protein 13 (protein, UniProt P48723 23-471)
chain: QQYLPLPTPKVIGIDLGTTYCSVGVFFPGTGKVKVIPDENGHISIPSMVSFTDNDVYVGYESVELADSNPQNTIYDAKRFIGKIFTAEELEAEIGRYPFKVLNKNGMVEFSVTSNETITVSPEYVGSRLLLKLKEMAEAYLGMPVANAVISVPAEFDLKQRNSTIEAANLAGLKILRVINEPTAAAMAYGLHKADVFHVLVIDLGGGTLDVSLLNKQGGMFLTRAMSGNNKLGGQDFNQRLLQYLYKQIYQTYGFVPSRKEEIHRLRQAVEMVKLNLTLHQSAQLSVLLTVEEQDRKEPHSSDTELPKDKLSSADDHRVNSGFGRGLSDKKSGESQVLFETEISRKLFDTLNEDLFQKILVPIQQVLKEGHLEKTEIDEVVLVGGSTRIPRIRQVIQEFFGKDPNTSVDPDLAVVTGVAIQAGIDGGSWPLQVSALEIPNKHLQKTNFN
B2: TOX high mobility group box family member 4 (protein, UniProt O94842 1-621)
chain: MEFPGGNDNYLTITGPSHPFLSGAETFHTPSLGDEEFEIPPISLDSDPSLAVSDVVGHFDDLADPSSSQDGSFSAQYGVQTLDMPVGMTHGLMEQGGGLLSGGLTMDLDHSIGTQYSANPPVTIDVPMTDMTSGLMGHSQLTTIDQSELSSQLGLSLGGGTILPPAQSPEDRLSTTPSPTSSLHEDGVEDFRRQLPSQKTVVVEAGKKQKAPKKRKKKDPNEPQKPVSAYALFFRDTQAAIKGQNPNATFGEVSKIVASMWDSLGEEQKQVYKRKTEAAKKEYLKALAAYKDNQECQATVETVELDPAPPSQTPSPPPMATVDPASPAPASIEPPALSPSIVVNSTLSSYVANQASSGAGGQPNITKLIITKQMLPSSITMSQGGMVTVIPATVVTSRGLQLGQTSTATIQPSQQAQIVTRSVLQAAAAAAAAASMQLPPPRLQPPPLQQMPQPPTQQQVTILQQPPPLQAMQQPPPQKVRINLQQQPPPLQIKSVPLPTLKMQTTLVPPTVESSPERPMNNSPEAHTVEAPSPETICEMITDVVPEVESPSQMDVELVSGSPVALSPQPRCVRSGCENPPIVSKDWDNEYCSNECVVKHCRDVFLAWVASRNSNTVVFVK
B3: E2 ubiquitin-conjugating enzyme (protein, UniProt Q9C0C9 1-1292)
chain: MADPAAPTPAAPAPAQAPAPAPEAVPAPAAAPVPAPAPASDSASGPSSDSGPEAGSQRLLFSHDLVSGRYRGSVHFGLVRLIHGEDSDSEGEEEGRGSSGCSEAGGAGHEEGRASPLRRGYVRVQWYPEGVKQHVKETKLKLEDRSVVPRDVVRHMRSTDSQCGTVIDVNIDCAVKLIGTNCIIYPVNSKDLQHIWPFMYGDYIAYDCWLGKVYDLKNQIILKLSNGARCSMNTEDGAKLYDVCPHVSDSGLFFDDSYGFYPGQVLIGPAKIFSSVQWLSGVKPVLSTKSKFRVVVEEVQVVELKVTWITKSFCPGGTDSVSPPPSVITQENLGRVKRLGCFDHAQRQLGERCLYVFPAKVEPAKIAWECPEKNCAQGEGSMAKKVKRLLKKQVVRIMSCSPDTQCSRDHSMEDPDKKGESKTKSEAESASPEETPDGSASPVEMQDEGAEEPHEAGEQLPPFLLKEGRDDRLHSAEQDADDEAADDTDDTSSVTSSASSTTSSQSGSGTSRKKSIPLSIKNLKRKHKRKKNKITRDFKPGDRVAVEVVTTMTSADVMWQDGSVECNIRSNDLFPVHHLDNNEFCPGDFVVDKRVQSCPDPAVYGVVQSGDHIGRTCMVKWFKLRPSGDDVELIGEEEDVSVYDIADHPDFRFRTTDIVIRIGNTEDGAPHKEDEPSVGQVARVDVSSKVEVVWADNSKTIILPQHLYNIESEIEESDYDSVEGSTSGASSDEWEDDSDSWETDNGLVEDEHPKIEEPPIPPLEQPVAPEDKGVVISEEAATAAVQGAVAMAAPMAGLMEKAGKDGPPKSFRELKEAIKILESLKNMTVEQLLTGSPTSPTVEPEKPTREKKFLDDIKKLQENLKKTLDNVAIVEEEKMEAVPDVERKEDKPEGQSPVKAEWPSETPVLCQQCGGKPGVTFTSAKGEVFSVLEFAPSNHSFKKIEFQPPEAKKFFSTVRKEMALLATSLPEGIMVKTFEDRMDLFSALIKGPTRTPYEDGLYLFDIQLPNIYPAVPPHFCYLSQCSGRLNPNLYDNGKVCVSLLGTWIGKGTERWTSKSSLLQVLISIQGLILVNEPYYNEAGFDSDRGLQEGYENSRCYNEMALIRVVQSMTQLVRRPPEVFEQEIRQHFSTGGWRLVNRIESWLETHALLEKAQALPNGVPKASSSPEPPAVAELSDSGQQEPEDGGPAPGEASQGSDSEGGAQGLASASRDHTDQTSETAPDASVPPSVKPKKRRKSYRSFLPEKSGYPDIGFPLFPLSKGFIKSIRGVLTQFRAALLEAGMPECTEDK
B4: Thioredoxin-like protein 1 (protein, UniProt O43396 1-289)
chain: MVGVKPVGSDPDFQPELSGAGSRLAVVKFTMRGCGPCLRIAPAFSSMSNKYPQAVFLEVDVHQCQGTAATNNISATPTFLFFRNKVRIDQYQGADAVGLEEKIKQHLENDPGSNEDTDIPKGYMDLMPFINKAGCECLNESDEHGFDNCLRKDTTFLESDCDEQLLITVAFNQPVKLYSMKFQGPDNGQGPKYVKIFINLPRSMDFEEAERSEPTQALELTEDDIKEDGIVPLRYVKFQNVNSVTIFVQSNQGEEETTRISYFTFIGTPVQATNMNDFKRVVGKKGESH
B5: Nucleolar protein 58 (protein, UniProt Q9Y2X3 1-529)
chain: MLVLFETSVGYAIFKVLNEKKLQEVDSLWKEFETPEKANKIVKLKHFEKFQDTAEALAAFTALMEGKINKQLKKVLKKIVKEAHEPLAVADAKLGGVIKEKLNLSCIHSPVVNELMRGIRSQMDGLIPGVEPREMAAMCLGLAHSLSRYRLKFSADKVDTMIVQAISLLDDLDKELNNYIMRCREWYGWHFPELGKIISDNLTYCKCLQKVGDRKNYASAKLSELLPEEVEAEVKAAAEISMGTEVSEEDICNILHLCTQVIEISEYRTQLYEYLQNRMMAIAPNVTVMVGELVGARLIAHAGSLLNLAKHAASTVQILGAEKALFRALKSRRDTPKYGLIYHASLVGQTSPKHKGKISRMLAAKTVLAIRYDAFGEDSSSAMGVENRAKLEARLRTLEDRGIRKISGTGKALAKTEKYEHKSEVKTYDPSGDSTLPTCSKKRKIEQVDKEDEITEKKAKKAKIKVKVEEEEEEKVAEEEETSVKKKKKRGKKKHIKEEPLSEEEPCTSTAIASPEKKKKKKKKRENED
B6: U4/U6.U5 tri-snRNP-associated protein 1 (protein, UniProt O43290 1-800)
chain: MGSSKKHRGEKEAAGTTAAAGTGGATEQPPRHREHKKHKHRSGGSGGSGGERRKRSRERGGERGSGRRGAEAEARSSTHGRERSQAEPSERRVKREKRDDGYEAAASSKTSSGDASSLSIEETNKLRAKLGLKPLEVNAIKKEAGTKEEPVTADVINPMALRQREELREKLAAAKEKRLLNQKLGKIKTLGEDDPWLDDTAAWIERSRQLQKEKDLAEKRAKLLEEMDQEFGVSTLVEEEFGQRRQDLYSARDLQGLTVEHAIDSFREGETMILTLKDKGVLQEEEDVLVNVNLVDKERAEKNVELRKKKPDYLPYAEDESVDDLAQQKPRSILSKYDEELEGERPHSFRLEQGGTADGLRERELEEIRAKLRLQAQSLSTVGPRLASEYLTPEEMVTFKKTKRRVKKIRKKEKEVVVRADDLLPLGDQTQDGDFGSRLRGRGRRRVSEVEEEKEPVPQPLPSDDTRVENMDISDEEEGGAPPPGSPQVLEEDEAELELQKQLEKGRRLRQLQQLQQLRDSGEKVVEIVKKLESRQRGWEEDEDPERKGAIVFNATSEFCRTLGEIPTYGLAGNREEQEELMDFERDEERSANGGSESDGEENIGWSTVNLDEEKQQQDFSASSTTILDEEPIVNRGLAAALLLCQNKGLLETTVQKVARVKAPNKSLPSAVYCIEDKMAIDDKYSRREEYRGFTQDFKEKDGYKPDVKIEYVDETGRKLTPKEAFRQLSHRFHGKGSGKMKTERRMKKLDEEALLKKMSSSDTPLGTVALLQEKQKAQKTPYIVLSGSGKSMNANTITK
B7: Activity-dependent neuroprotector homeobox protein (protein, UniProt Q9H2P0 1-1102)
chain: MFQLPVNNLGSLRKARKTVKKILSDIGLEYCKEHIEDFKQFEPNDFYLKNTTWEDVGLWDPSLTKNQDYRTKPFCCSACPFSSKFFSAYKSHFRNVHSEDFENRILLNCPYCTFNADKKTLETHIKIFHAPNASAPSSSLSTFKDKNKNDGLKPKQADSVEQAVYYCKKCTYRDPLYEIVRKHIYREHFQHVAAPYIAKAGEKSLNGAVPLGSNAREESSIHCKRCLFMPKSYEALVQHVIEDHERIGYQVTAMIGHTNVVVPRSKPLMLIAPKPQDKKSMGLPPRIGSLASGNVRSLPSQQMVNRLSIPKPNLNSTGVNMMSSVHLQQNNYGVKSVGQGYSVGQSMRLGLGGNAPVSIPQQSQSVKQLLPSGNGRSYGLGSEQRSQAPARYSLQSANASSLSSGQLKSPSLSQSQASRVLGQSSSKPAAAATGPPPGNTSSTQKWKICTICNELFPENVYSVHFEKEHKAEKVPAVANYIMKIHNFTSKCLYCNRYLPTDTLLNHMLIHGLSCPYCRSTFNDVEKMAAHMRMVHIDEEMGPKTDSTLSFDLTLQQGSHTNIHLLVTTYNLRDAPAESVAYHAQNNPPVPPKPQPKVQEKADIPVKSSPQAAVPYKKDVGKTLCPLCFSILKGPISDALAHHLRERHQVIQTVHPVEKKLTYKCIHCLGVYTSNMTASTITLHLVHCRGVGKTQNGQDKTNAPSRLNQSPSLAPVKRTYEQMEFPLLKKRKLDDDSDSPSFFEEKPEEPVVLALDPKGHEDDSYEARKSFLTKYFNKQPYPTRREIEKLAASLWLWKSDIASHFSNKRKKCVRDCEKYKPGVLLGFNMKELNKVKHEMDFDAEWLFENHDEKDSRVNASKTADKKLNLGKEDDSSSDSFENLEEESNESGSPFDPVFEVEPKISNDNPEEHVLKVIPEDASESEEKLDQKEDGSKYETIHLTEEPTKLMHNASDSEVDQDDVVEWKDGASPSESGPGSQQVSDFEDNTCEMKPGTWSDESSQSEDARSSKPAAKKKATMQGDREQLKWKNSSYGKVEGFWSKDQSQWKNASENDERLSNPQIEWQNSTIDSEDGEQFDNMTDGVAEPMHGSLAGVKLSSQQA

target: T1, Myc-BirA*-Txnip C247S (human); test: proximity labelling; BioID: Myc-BirA*-Txnip or its C247S mutant stably expressed in HEK293, DMEM with 25 mM glucose and 50 uM biotin for 24 hrs; stringent lysis (0.4% SDS, 500 mM NaCl), biotinylated proteins captured on streptavidin Dynabeads, on-bead trypsin digestion, 1D LC-MS/MS; hits in at least 2 of 3 trials, parental HEK293 as control; also the high glucose arm of cells acclimated to low glucose

Binder | binding
B1 | no binding

target: Myc-BirA*-Txnip (human) (UniProt Q9H3M7); test: as above

Binder | binding
B2 | binds
B3 | binds
B4 | binds
B5 | binds
B6 | binds
B7 | binds
B1 | binds
